From patent US20150191445A1, “ACYL-HYDRAZONE AND OXADIAZOLE COMPOUNDS, PHARMACEUTICAL COMPOSITIONS CONTAINING THE SAME AND USES THEREOF” (Universidade Federal de Santa Catarina, priority 2011, published 2015)

System: HL-60 cells
Test: DNA microarray gene expression and GSEA analysis
Format: cell-based, human
Details: 125 nM, 6 h, FC>1.5, p<0.05
Protocol: The cells were incubated for 12 hours in fresh medium before the experiments. Two million cells from the leukemic cell line HL60, in triplicate, were treated with a 125 nM dose of compound 07 or with dimethylsulfoxide (DMSO) vehicle for 6 h, in DMEM supplemented with 10% fetal bovine serum. At the end of this period, the cells were recovered by brief centrifugation and lysed in a solution of guanidine of the RNAspin Mini RNA Isolation kit (GE).
Total RNA was extracted from cells using the RNAspin Mini RNA Isolation kit (GE) following the manufacturer's instructions. A total of 100 ng of RNA was used to prepare biotinylated complementary RNA probes (Bio-cRNA), by cDNA synthesis followed by amplification by in vitro transcription, using the GeneChip WT cDNA Synthesis and Amplification kit (Affymetrix) according to the recommendations of the manufacturer. […]
the results of the microarray hybridization were read in the Affymetrix Gene Chip Scanner 3000-7G. Data were analyzed in the Bioconductor platform. […] The list of differentially expressed genes were analyzed using the CMap (http://www.broad.mit.edu/cmap/) for identification of possible action mechanisms related to the action of known compounds (Lamb, J., Crawford E. D. The Connectivity Map: Using Gene-Expression Signatures to Connect Small Molecules, Genes and Disease Science 2006, 313, 1929-1935). […]

With COc1cc(C(=O)NN=Cc2cccc3ccccc23)cc(OC)c1OC [Compound 07] the “transcription activation, number of genes” value was 353 genes and the “transcription repression, number of genes” value was 102 genes.
